Results: PMC5305204
Results are given in words; binding and its absence hold for the method and conditions named. Binding seen in cells or lysates may run through a third protein. Some entries that bind do so weakly or less than the wild type. Each block holds one molecule with its values, some of them ahead of it.

Protein sequences, listed by entry. Tags and fused reporters are not part of them.
UniProt Q9UKV5: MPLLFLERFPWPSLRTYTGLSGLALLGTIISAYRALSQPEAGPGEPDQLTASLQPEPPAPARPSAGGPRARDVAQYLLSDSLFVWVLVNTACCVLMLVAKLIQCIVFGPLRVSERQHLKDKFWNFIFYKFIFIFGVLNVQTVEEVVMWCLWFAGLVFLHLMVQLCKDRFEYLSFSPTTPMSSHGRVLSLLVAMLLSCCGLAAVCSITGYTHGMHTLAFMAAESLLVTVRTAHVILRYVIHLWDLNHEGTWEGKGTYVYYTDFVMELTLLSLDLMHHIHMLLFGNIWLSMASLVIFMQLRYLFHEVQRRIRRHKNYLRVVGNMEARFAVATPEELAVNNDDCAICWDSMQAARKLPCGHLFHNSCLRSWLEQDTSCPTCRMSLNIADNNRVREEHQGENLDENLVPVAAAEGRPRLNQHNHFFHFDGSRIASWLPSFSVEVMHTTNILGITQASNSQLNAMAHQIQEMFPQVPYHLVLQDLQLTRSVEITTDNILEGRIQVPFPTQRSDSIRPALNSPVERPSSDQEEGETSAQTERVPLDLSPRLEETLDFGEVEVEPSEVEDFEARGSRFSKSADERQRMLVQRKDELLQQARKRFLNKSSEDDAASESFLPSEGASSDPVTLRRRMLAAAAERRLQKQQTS

Legend:
[1] = molecular target: T1, 11β-hydroxysteroid dehydrogenase-2 (human (endogenous in LAPC4)) (UniProt P80365); assay: co-IP; endogenous proteins in LAPC4 lysate (Pierce IP Lysis/Wash Buffer, protease inhibitors); 1-2 mg protein incubated with rabbit IgG, 11β-HSD2 antibody or AMFR antibody overnight at 4°C; immunoblot for 11β-HSD2 or AMFR
T1 sequence: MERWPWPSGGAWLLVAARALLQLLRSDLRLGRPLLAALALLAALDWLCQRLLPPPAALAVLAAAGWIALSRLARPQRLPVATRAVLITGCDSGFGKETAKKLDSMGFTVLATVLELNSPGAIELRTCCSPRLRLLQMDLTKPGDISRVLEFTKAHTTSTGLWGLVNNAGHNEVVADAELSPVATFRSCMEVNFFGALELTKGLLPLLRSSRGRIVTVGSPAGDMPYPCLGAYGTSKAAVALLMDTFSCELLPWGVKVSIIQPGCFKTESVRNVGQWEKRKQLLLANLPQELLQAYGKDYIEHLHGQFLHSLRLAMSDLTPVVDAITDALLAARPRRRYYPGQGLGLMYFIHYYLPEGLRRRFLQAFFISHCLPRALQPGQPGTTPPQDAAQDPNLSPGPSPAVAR

[2] = molecular target: autocrine mobility factor receptor (human (endogenous in LAPC4)) (UniProt Q9UKV5); assay: as above

binding [1]: binds
Molecule: autocrine mobility factor receptor (from UniProt Q9UKV5 1-643) (enzyme)

binding [2]: binds
B1: 11β-hydroxysteroid dehydrogenase-2 (enzyme, UniProt P80365 1-405)
chain: T1 sequence
